Some of the results follow. Hit calls seldom repeat between salt and free forms of one compound.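 Kinases were expressed as nanoluciferase fusions in K562 cells and luminescence was read every 4 h between 2 and 18 h as percent of control, DMSO set to 100% and a positive control to 0%. A time point counts as decreased when the signal drops significantly (2 sigma). The hit call is the authors' own, does not follow from the count of time points alone, and its rule is not shown.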
How the values were obtained:
Experiment in all cases: number of time points (of 5) at which kinase-Nluc abundance scored as decreased, DMSO-normalised (count); higher = more persistent destabilization
Pelitinib = compound: CCOc1cc2ncc(C#N)c(Nc3ccc(F)c(Cl)c3)c2cc1NC(=O)/C=C/CN(C)C [Pelitinib]; conditions: 2.5 µM; K562; 2-18 h
JNK Inhibitor VIII = compound: CCOc1nc(NC(=O)Cc2cc(OC)ccc2OC)cc(N)c1C#N [JNK Inhibitor VIII]; conditions: 10 µM; K562; 2-18 h
[1] = compound: CC[C@@H]1C(=O)N(C)c2cnc(Nc3ccc(C(=O)NC4CCN(C)CC4)cc3OC)nc2N1C1CCCC1; conditions: 10 µM; K562; 2-18 h
[2] = compound: CCc1cc2c(cc1-c1cnn(CC(=O)N(C)C)c1)C(C)(C)c1[nH]c3cc(C#N)ccc3c1C2=O; conditions: 2.5 µM; K562; 2-18 h
Dovitinib (lactate) = compound: CN1CCN(c2ccc3nc(-c4c(N)c5c(F)cccc5[nH]c4=O)[nH]c3c2)CC1 [Dovitinib (lactate)]; conditions: 2.5 µM; K562; 2-18 h
Dovitinib = compound: CN1CCN(c2ccc3nc(-c4c(N)c5c(F)cccc5[nH]c4=O)[nH]c3c2)CC1 [Dovitinib]; conditions: 2.5 µM; K562; 2-18 h
Sotrastaurin = compound: CN1CCN(c2nc(C3=C(c4c[nH]c5ccccc45)C(=O)NC3=O)c3ccccc3n2)CC1 [Sotrastaurin]; conditions: 2.5 µM; K562; 2-18 h
Sorafenib (Tosylate) = compound: CNC(=O)c1cc(Oc2ccc(NC(=O)Nc3ccc(Cl)c(C(F)(F)F)c3)cc2)ccn1 [Sorafenib (Tosylate)]; conditions: 10 µM; K562; 2-18 h
Sorafenib = compound: CNC(=O)c1cc(Oc2ccc(NC(=O)Nc3ccc(Cl)c(C(F)(F)F)c3)cc2)ccn1 [Sorafenib]; conditions: 2.5 µM; K562; 2-18 h
[3] = compound: COc1cc(N2CCN(C)CC2)ccc1Nc1nccc(-c2cn(C)c3cnccc23)n1; conditions: 10 µM; K562; 2-18 h
Bosutinib = compound: COc1cc(Nc2c(C#N)cnc3cc(OCCCN4CCN(C)CC4)c(OC)cc23)c(Cl)cc1Cl [Bosutinib]; conditions: 2.5 µM; K562; 2-18 h
Gefitinib = compound: COc1cc2ncnc(Nc3ccc(F)c(Cl)c3)c2cc1OCCCN1CCOCC1 [Gefitinib]; conditions: 10 µM; K562; 2-18 h
[4] = compound: COc1cc2ncnc(Nc3cccc(Br)c3)c2cc1OC; conditions: 10 µM; K562; 2-18 h
[5] = compound: COc1ccc(-c2c[nH]c3nccc(-c4ccsc4)c23)c(OC)c1; conditions: 10 µM; K562; 2-18 h
[6] = compound: COc1ccc(-c2cc(C(=O)NN=C(C)c3ccc(OC)c(OC)c3)[nH]n2)cc1; conditions: 10 µM; K562; 2-18 h
Ripretinib = compound: CCn1c(=O)c(-c2cc(NC(=O)Nc3ccccc3)c(F)cc2Br)cc2cnc(NC)cc21 [Ripretinib]; conditions: 10 µM; K562; 2-18 h
[7] = compound: COc1cc(N2CCC(N3CCN(C)CC3)CC2)ccc1Nc1ncc(Cl)c(Nc2ccccc2S(=O)(=O)C(C)C)n1; conditions: 2.5 µM; K562; 2-18 h
Vandetanib = compound: COc1cc2/c(=N/c3ccc(Br)cc3F)nc[nH]c2cc1OCC1CCN(C)CC1 [Vandetanib]; conditions: 2.5 µM; K562; 2-18 h
[8] = compound: CN(c1ccnc(Nc2cc(N3CCOCC3)cc(N3CCOCC3)c2)n1)c1cccc2[nH]ncc12; conditions: 2.5 µM; K562; 2-18 h
[9] = compound: COc1cc(N2CCN(C(C)=O)CC2)ccc1Nc1ncc(Cl)c(Nc2ccc(N3CCN(C(C)=O)CC3)cc2OC)n1; conditions: 10 µM; K562; 2-18 h

By UniProt entry, the sequences of proteins in these tests, tags left out. Where a name states a change or a piece, a line headed by the entry shows the natural chain unless it says otherwise.
UniProt Q9UM73: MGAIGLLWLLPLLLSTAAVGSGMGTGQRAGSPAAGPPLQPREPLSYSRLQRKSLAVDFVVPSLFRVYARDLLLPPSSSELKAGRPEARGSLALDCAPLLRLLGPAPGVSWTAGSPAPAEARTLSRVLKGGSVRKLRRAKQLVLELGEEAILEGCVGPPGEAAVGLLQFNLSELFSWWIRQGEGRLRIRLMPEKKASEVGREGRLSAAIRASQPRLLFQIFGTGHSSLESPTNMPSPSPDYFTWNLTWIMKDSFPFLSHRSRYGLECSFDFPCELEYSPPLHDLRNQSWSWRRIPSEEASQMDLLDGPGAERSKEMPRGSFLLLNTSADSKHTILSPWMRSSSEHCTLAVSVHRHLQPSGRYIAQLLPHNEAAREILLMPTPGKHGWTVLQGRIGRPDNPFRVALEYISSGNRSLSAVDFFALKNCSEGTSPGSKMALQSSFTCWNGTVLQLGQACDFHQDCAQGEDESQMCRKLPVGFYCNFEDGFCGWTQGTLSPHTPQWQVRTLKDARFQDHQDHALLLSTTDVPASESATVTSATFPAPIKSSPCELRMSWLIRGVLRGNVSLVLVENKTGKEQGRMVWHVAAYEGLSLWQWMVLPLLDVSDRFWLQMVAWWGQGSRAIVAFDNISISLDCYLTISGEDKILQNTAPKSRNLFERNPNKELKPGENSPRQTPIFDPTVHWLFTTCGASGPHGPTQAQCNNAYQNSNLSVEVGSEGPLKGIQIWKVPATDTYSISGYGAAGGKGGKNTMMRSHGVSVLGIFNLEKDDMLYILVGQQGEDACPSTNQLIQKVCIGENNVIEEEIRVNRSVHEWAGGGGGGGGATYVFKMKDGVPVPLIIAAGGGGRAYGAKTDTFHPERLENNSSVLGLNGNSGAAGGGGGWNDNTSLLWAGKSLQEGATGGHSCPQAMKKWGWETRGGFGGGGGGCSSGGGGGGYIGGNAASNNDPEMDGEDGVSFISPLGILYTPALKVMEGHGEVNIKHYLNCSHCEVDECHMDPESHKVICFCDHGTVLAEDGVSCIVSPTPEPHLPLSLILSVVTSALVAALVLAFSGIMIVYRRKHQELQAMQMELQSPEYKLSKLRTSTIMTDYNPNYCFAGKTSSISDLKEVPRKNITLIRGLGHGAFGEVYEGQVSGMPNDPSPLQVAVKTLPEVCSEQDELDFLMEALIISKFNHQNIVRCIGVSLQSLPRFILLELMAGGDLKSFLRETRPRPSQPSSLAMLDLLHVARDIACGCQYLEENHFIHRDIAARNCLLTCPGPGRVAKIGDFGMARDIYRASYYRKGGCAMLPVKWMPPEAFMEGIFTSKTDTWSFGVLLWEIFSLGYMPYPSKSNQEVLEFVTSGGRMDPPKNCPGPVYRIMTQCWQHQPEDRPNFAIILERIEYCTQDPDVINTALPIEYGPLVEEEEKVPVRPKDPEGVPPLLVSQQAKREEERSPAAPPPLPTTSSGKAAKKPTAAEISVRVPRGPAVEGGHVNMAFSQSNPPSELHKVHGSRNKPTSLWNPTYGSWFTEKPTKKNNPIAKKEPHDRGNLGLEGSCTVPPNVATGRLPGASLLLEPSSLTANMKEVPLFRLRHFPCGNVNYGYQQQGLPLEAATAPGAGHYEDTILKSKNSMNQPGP
UniProt Q15303, whole entry R711C: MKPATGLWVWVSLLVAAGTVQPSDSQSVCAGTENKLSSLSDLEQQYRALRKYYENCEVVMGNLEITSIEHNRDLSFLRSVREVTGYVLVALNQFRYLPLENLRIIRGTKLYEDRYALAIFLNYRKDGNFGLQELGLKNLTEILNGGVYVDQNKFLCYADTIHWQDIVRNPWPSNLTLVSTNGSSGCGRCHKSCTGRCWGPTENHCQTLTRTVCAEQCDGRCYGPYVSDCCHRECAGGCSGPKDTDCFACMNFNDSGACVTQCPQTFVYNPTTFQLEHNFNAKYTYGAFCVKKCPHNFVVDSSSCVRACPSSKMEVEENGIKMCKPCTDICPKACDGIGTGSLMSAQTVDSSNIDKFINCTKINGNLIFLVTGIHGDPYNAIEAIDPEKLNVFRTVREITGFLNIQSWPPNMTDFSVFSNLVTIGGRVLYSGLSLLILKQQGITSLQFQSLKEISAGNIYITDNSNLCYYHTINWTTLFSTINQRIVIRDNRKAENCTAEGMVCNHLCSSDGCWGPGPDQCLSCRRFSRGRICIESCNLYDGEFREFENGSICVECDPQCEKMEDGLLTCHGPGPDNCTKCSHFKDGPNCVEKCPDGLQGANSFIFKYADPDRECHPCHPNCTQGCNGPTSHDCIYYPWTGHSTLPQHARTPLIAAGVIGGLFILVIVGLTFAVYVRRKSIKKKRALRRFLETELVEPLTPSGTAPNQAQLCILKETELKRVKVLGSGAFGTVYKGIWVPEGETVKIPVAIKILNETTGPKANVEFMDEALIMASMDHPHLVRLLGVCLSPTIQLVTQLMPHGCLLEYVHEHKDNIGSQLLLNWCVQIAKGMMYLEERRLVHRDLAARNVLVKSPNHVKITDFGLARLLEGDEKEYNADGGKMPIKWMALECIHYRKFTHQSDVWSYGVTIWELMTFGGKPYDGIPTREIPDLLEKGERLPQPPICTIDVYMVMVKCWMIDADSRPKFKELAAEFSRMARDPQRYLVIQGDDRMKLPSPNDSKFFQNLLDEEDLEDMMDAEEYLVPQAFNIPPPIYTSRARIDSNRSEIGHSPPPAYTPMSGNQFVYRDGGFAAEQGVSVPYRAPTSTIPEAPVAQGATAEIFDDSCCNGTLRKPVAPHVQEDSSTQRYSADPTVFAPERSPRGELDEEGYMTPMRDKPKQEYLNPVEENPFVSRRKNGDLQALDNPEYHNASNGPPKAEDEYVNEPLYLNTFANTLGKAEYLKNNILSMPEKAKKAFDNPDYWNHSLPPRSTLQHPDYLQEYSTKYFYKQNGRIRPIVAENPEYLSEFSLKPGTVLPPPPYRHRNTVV
UniProt P21802, whole entry, looked up: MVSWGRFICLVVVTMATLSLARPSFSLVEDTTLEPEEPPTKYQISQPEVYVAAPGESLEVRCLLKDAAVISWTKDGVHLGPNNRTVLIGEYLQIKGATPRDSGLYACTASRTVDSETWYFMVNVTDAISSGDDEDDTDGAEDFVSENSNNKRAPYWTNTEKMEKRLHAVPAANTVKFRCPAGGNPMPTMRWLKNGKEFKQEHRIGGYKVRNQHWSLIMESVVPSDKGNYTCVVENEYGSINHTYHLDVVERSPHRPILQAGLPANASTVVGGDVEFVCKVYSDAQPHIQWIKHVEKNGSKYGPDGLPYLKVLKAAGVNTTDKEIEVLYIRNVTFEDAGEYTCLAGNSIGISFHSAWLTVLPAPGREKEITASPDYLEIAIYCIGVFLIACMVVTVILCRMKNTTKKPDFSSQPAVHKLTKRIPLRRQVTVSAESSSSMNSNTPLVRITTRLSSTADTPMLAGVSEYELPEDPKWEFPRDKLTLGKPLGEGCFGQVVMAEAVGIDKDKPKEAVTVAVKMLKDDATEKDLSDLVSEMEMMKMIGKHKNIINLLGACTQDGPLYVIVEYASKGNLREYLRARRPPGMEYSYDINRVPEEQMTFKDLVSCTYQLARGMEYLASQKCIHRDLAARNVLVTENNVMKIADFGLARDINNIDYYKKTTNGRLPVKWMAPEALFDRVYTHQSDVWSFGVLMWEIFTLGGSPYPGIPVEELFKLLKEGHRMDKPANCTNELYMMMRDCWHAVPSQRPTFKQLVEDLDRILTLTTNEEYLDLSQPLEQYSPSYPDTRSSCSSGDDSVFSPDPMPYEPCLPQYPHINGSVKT
UniProt P09619, whole entry: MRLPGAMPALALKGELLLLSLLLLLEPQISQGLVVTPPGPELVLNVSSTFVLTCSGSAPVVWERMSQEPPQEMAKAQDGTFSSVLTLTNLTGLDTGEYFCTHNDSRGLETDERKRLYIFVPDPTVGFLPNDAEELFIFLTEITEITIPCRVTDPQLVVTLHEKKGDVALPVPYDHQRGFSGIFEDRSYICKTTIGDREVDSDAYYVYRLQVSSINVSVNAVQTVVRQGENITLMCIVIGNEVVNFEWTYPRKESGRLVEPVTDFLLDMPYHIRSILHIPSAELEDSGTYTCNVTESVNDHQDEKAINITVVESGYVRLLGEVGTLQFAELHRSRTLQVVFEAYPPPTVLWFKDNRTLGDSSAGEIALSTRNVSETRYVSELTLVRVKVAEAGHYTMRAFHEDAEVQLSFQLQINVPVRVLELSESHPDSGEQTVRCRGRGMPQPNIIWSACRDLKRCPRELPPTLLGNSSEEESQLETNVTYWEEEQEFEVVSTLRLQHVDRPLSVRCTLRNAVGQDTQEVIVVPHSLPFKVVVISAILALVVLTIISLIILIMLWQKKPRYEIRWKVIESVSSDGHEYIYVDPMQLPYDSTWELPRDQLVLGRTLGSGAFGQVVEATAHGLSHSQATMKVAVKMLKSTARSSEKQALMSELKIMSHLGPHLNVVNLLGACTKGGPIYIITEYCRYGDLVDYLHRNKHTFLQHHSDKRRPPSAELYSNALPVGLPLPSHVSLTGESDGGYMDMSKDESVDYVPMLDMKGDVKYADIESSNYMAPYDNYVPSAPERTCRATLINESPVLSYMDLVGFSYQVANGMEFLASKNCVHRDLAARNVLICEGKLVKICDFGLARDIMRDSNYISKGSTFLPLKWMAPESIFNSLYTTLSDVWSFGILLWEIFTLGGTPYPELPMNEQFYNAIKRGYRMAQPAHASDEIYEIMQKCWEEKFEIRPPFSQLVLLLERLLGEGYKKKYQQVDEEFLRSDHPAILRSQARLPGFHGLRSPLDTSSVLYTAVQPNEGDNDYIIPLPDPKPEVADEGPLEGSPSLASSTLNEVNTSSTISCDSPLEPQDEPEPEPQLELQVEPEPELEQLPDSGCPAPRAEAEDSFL
UniProt P07333, whole entry: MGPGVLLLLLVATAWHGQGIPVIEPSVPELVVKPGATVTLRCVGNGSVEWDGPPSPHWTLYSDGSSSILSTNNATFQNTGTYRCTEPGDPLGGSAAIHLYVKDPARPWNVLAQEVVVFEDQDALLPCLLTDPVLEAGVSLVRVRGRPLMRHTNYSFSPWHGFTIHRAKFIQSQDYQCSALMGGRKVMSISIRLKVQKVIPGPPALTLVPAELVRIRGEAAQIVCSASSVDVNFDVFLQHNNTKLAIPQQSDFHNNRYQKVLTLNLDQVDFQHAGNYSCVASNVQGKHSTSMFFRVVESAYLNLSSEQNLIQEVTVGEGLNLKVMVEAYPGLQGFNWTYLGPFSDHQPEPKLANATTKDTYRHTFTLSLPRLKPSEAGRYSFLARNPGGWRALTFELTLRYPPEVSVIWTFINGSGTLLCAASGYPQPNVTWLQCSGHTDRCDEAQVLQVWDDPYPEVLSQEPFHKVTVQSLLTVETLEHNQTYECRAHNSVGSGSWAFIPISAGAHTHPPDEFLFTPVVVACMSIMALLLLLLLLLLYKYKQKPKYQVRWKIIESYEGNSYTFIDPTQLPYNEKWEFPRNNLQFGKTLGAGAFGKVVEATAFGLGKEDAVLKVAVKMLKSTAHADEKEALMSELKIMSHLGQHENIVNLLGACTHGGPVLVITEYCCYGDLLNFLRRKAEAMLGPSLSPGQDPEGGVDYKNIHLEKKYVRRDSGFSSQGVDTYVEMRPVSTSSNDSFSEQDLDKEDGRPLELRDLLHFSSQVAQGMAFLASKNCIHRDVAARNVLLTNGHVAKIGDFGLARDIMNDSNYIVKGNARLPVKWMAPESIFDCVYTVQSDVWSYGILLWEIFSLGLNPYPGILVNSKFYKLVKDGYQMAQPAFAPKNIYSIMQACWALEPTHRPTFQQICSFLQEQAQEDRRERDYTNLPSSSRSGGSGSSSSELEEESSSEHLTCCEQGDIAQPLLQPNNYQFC
UniProt P48729: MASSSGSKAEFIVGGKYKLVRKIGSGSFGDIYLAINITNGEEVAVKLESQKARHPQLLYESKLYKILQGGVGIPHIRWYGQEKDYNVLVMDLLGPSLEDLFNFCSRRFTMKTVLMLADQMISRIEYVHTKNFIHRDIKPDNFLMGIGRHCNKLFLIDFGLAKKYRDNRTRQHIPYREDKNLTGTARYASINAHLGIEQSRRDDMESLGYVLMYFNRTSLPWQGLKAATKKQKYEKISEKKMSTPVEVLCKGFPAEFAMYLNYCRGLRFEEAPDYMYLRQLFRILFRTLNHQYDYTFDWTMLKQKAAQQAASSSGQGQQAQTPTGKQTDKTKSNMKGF

Row | Target | number of time points (Pelitinib) | number of time points (JNK Inhibitor VIII) | number of time points [1] | number of time points [2] | number of time points (Dovitinib (lactate)) | number of time points (Dovitinib) | number of time points (Sotrastaurin) | number of time points (Sorafenib (Tosylate)) | number of time points (Sorafenib) | number of time points [3] | number of time points (Bosutinib) | number of time points (Gefitinib) | number of time points [4] | number of time points [5] | number of time points [6] | number of time points (Ripretinib) | number of time points [7] | number of time points (Vandetanib) | number of time points [8] | number of time points [9]
1 | ALK (UniProt Q9UM73) | 0 | 0 | 2 | 0 | 0 | 0 | 0 | 0 | 0 | 0 | 0 | 0 | 0 | 0 | 1 | – | – | – | – | –
2 | ERBB4_R711C (clone: ERBB4_mut) (UniProt Q15303) | 0 | 0 | 3 | 0 | – | – | 0 | 0 | 1 | 0 | 2 | 0 | 0 | 3 | 1 | 0 | 2 | 1 | – | –
3 | EGFR_G719S_T790M (UniProt P00533) | – | – | – | 0 | 0 | 0 | – | – | – | 0 | 0 | – | – | 2 | 0 | 0 | 0 | – | – | –
4 | EGFR_L718V (UniProt P00533) | – | – | – | 0 | 0 | 0 | – | – | – | 0 | 0 | – | – | 0 | 0 | 0 | 0 | – | – | –
5 | FGFR2 (UniProt P21802) | 0 | 0 | 3 | – | – | – | 0 | 0 | 0 | 0 | 3 | 0 | 0 | 0 | 1 | 0 | 0 | 1 | – | –
6 | PDGFRB (UniProt P09619) | 0 | 0 | 1 | 0 | 0 | 0 | – | 0 | 2 | 0 | 0 | 0 | – | 0 | 1 | 0 | 0 | – | – | –
7 | SRC (UniProt P12931) | 0 | 0 | 0 | 0 | 0 | 0 | 0 | – | – | 0 | 0 | – | 0 | 0 | 0 | 0 | 0 | 0 | – | –
8 | BRAF_V600E | 0 | 0 | – | 0 | 0 | 0 | 0 | 0 | 1 | 0 | 3 | 0 | 0 | 3 | 0 | 5 | 0 | 1 | 1 | 0
9 | RET (UniProt P07949) | 0 | 0 | 2 | 0 | – | – | 0 | 0 | 0 | 0 | 0 | – | 0 | 0 | 1 | 0 | – | – | – | –
10 | CSF1R (UniProt P07333) | 0 | 0 | 0 | 0 | – | – | 0 | – | – | 0 | 0 | 0 | 0 | – | 5 | 0 | 0 | – | – | –
11 | FGFR3 (UniProt P22607) | 0 | 0 | 0 | 0 | – | – | 0 | 0 | 0 | 0 | 0 | 0 | 0 | 0 | 0 | 0 | 0 | – | – | –
12 | CSNK1A1 (UniProt P48729) | 2 | – | 0 | 0 | 0 | 0 | 0 | 0 | 0 | 0 | 0 | 1 | 0 | 0 | 0 | 0 | 0 | 0 | – | –
13 | EGFR_L858R (UniProt P00533) | – | – | – | 0 | 0 | 0 | – | – | – | 0 | 0 | – | – | 0 | 0 | 0 | 0 | – | – | –
